Results reported in PMC10940622.

By UniProt entry, the sequences of proteins in these tests, tags left out. Residues count along the entry.
UniProt Q9NXA8, residues 37-310: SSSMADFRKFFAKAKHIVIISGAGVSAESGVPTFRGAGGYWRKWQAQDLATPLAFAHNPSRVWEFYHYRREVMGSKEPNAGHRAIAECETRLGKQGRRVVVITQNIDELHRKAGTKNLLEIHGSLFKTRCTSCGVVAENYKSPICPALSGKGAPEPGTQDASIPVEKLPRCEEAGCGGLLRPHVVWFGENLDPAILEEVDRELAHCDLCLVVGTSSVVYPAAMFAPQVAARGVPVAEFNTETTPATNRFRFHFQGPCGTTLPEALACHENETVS
UniProt P49773: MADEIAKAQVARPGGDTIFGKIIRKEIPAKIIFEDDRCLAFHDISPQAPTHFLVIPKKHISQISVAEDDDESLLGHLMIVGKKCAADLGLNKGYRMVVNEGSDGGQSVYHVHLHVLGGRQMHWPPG

Biological target: Flag-tagged SIRT5 (sirtuin 5), overexpressed in Nalm-6-6-MPR cells (UniProt Q9NXA8)
Experiment: affinity purification with mass spectrometry; Flag-SIRT5 overexpressed in Nalm-6-6-MPR cells, lysed in 1% NP-40 buffer, held on Flag Fab-Trap agarose overnight at 4 °C; gel stained with coomassie brilliant blue, cut, tandem mass spectrometry

binding: binds
Substance: histidine triad nucleotide-binding protein 1 (HINT1), co-precipitated from Nalm-6-6-MPR cells (from UniProt P49773 1-126)

These are yes or no findings as the source states them, for the method shown. Binding seen in cells or lysates may run through a third protein. Here binding means that the protein was enriched with, or labelled near, the bait; the list need not be complete.
